Measurements reported in publication PMC10721647.

B1: Ribophorin (RPN)-1 subunit of the translocon-associated N-oligosaccharyltransferase (OST) complex (protein, UniProt P04843 24-607)
chain: ASSEAPPLINEDVKRTVDLSSHLAKVTAEVVLAHLGGGSTSRATSFLLALEPELEARLAHLGVQVKGEDEEENNLEVRETKIKGKSGRFFTVKLPVALDPGAKISVIVETVYTHVLHPYPTQITQSEKQFVVFEGNHYFYSPYPTKTQTMRVKLASRNVESYTKLGNPTRSEDLLDYGPFRDVPAYSQDTFKVHYENNSPFLTITSMTRVIEVSHWGNIAVEENVDLKHTGAVLKGPFSRYDYQRQPDSGISSIRSFKTILPAAAQDVYYRDEIGNVSTSHLLILDDSVEMEIRPRFPLFGGWKTHYIVGYNLPSYEYLYNLGDQYALKMRFVDHVFDEQVIDSLTVKIILPEGAKNIEIDSPYEISRAPDELHYTYLDTFGRPVIVAYKKNLVEQHIQDIVVHYTFNKVLMLQEPLLVVAAFYILFFTVIIYVRLDFSITKDPAAEARMKVACITEQVLTLVNKRIGLYRHFDETVNRYKQSRDISTLNSGKKSLETEHKALTSEIALLQSRLKTEGSDLCDRVSEMQKLDAQVKELVLKSAVEAERLVAGKLKKDTYIENEKLISGKRQELVTKIDHILDAL
B2: ZNF598, RQC ubiquitin ligase (protein, UniProt Q86UK7 1-904)
chain: MAAAGGAEGRRAALEAAAAAAPERGGGSCVLCCGDLEATALGRCDHPVCYRCSTKMRVLCEQRYCAVCREELRQVVFGKKLPAFATIPIHQLQHEKKYDIYFADGKVYALYRQLLQHECPRCPELPPFSLFGDLEQHMRRQHELFCCRLCLQHLQIFTYERKWYSRKDLARHRMQGDPDDTSHRGHPLCKFCDERYLDNDELLKHLRRDHYFCHFCDSDGAQDYYSDYAYLREHFREKHFLCEEGRCSTEQFTHAFRTEIDLKAHRTACHSRSRAEARQNRHIDLQFSYAPRHSRRNEGVVGGEDYEEVDRYSRQGRVARAGTRGAQQSRRGSWRYKREEEDREVAAAVRASVAAQQQEEARRSEDQEEGGRPKKEEAAARGPEDPRGPRRSPRTQGEGPGPKETSTNGPVSQEAFSVTGPAAPGCVGVPGALPPPSPKLKDEDFPSLSASTSSSCSTAATPGPVGLALPYAIPARGRSAFQEEDFPALVSSVPKPGTAPTSLVSAWNSSSSSKKVAQPPLSAQATGSGQPTRKAGKGSRGGRKGGPPFTQEEEEDGGPALQELLSTRPTGSVSSTLGLASIQPSKVGKKKKVGSEKPGTTLPQPPPATCPPGALQAPEAPASRAEGPVAVVVNGHTEGPAPARSAPKEPPGLPRPLGSFPCPTPQEDFPALGGPCPPRMPPPPGFSAVVLLKGTPPPPPPGLVPPISKPPPGFSGLLPSPHPACVPSPATTTTTKAPRLLPAPRAYLVPENFRERNLQLIQSIRDFLQSDEARFSEFKSHSGEFRQGLISAAQYYKSCRDLLGENFQKVFNELLVLLPDTAKQQELLSAHTDFCNREKPLSTKSKKNKKSAWQATTQQAGLDCRVCPTCQQVLAHGDASSHQALHAARDDDFPSLQAIARIIT
B3: SRP68 subunit of the Signal Recognition Particle (SRP) (protein, UniProt Q9UHB9 1-627)
chain: MAAEKQVPGGGGGGGSGGGGGSGGGGSGGGRGAGGEENKENERPSAGSKANKEFGDSLSLEILQIIKESQQQHGLRHGDFQRYRGYCSRRQRRLRKTLNFKMGNRHKFTGKKVTEELLTDNRYLLLVLMDAERAWSYAMQLKQEANTEPRKRFHLLSRLRKAVKHAEELERLCESNRVDAKTKLEAQAYTAYLSGMLRFEHQEWKAAIEAFNKCKTIYEKLASAFTEEQAVLYNQRVEEISPNIRYCAYNIGDQSAINELMQMRLRSGGTEGLLAEKLEALITQTRAKQAATMSEVEWRGRTVPVKIDKVRIFLLGLADNEAAIVQAESEETKERLFESMLSECRDAIQVVREELKPDQKQRDYILEGEPGKVSNLQYLHSYLTYIKLSTAIKRNENMAKGLQRALLQQQPEDDSKRSPRPQDLIRLYDIILQNLVELLQLPGLEEDKAFQKEIGLKTLVFKAYRCFFIAQSYVLVKKWSEALVLYDRVLKYANEVNSDAGAFKNSLKDLPDVQELITQVRSEKCSLQAAAILDANDAHQTETSSSQVKDNKPLVERFETFCLDPSLVTKQANLVHFPPGFQPIPCKPLFFDLALNHVAFPPLEDKLEQKTKSGLTGYIKGIFGFRS
B4: β subunit of the SRP receptor (SRPRB) (protein, UniProt Q9Y5M8 1-271)
chain: MASADSRRVADGGGAGGTFQPYLDTLRQELQQTDPTLLSVVVAVLAVLLTLVFWKLIRSRRSSQRAVLLVGLCDSGKTLLFVRLLTGLYRDTQTSITDSCAVYRVNNNRGNSLTLIDLPGHESLRLQFLERFKSSARAIVFVVDSAAFQREVKDVAEFLYQVLIDSMGLKNTPSFLIACNKQDIAMAKSAKLIQQQLEKELNTLRVTRSAAPSTLDSSSTAPAQLGKKGKEFEFSQLPLKVEFLECSAKGGRGDVGSADIQDLEKWLAKIA

Target: FLAG-BPLF1, viral ubiquitin deconjugase (vDUB) encoded in the N-terminal domain (aa 1-235) of the Epstein-Barr virus large tegument protein BPLF1 (Epstein-Barr virus) (UniProt P03186)
Assay: affinity purification with mass spectrometry; anti-FLAG immunoprecipitates of cells transfected with FLAG-BPLF1 or FLAG-BPLF1 C61A against FLAG-empty vector, biological duplicates; hits need at least four unique spectral counts; mass spectrometry data previously reported (ref. 43) and reanalysed here

Molecule | binding
SEC63 subunit of the ER translocon (from UniProt Q9UGP8 1-760) | binds
eIF2α, translation pre-initiation complex subunit (from UniProt P05198 1-315) | binds
AAA+ ATPase VCP/p97 (from UniProt P55072 1-806) | binds
B1 | binds
B2 | binds
B3 | binds
B4 | binds

Results are given in words; binding and its absence hold for the method and conditions named. In cells and extracts the contact can be indirect. These calls come from enrichment with a bait or labelling near it, and not all partners need be listed.
